Measurements: article PMC7853042

T1: Terminal (Ter) fragment of PDCD11 (human) (UniProt Q14690)
T1 sequence: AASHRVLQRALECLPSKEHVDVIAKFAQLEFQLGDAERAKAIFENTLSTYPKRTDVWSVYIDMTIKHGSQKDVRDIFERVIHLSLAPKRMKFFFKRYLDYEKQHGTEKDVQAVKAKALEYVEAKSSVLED

B1: RHD domain of c-Rel (domain or fragment, UniProt Q04864 8-297)
chain: PYIEIIEQPRQRGMRFRYKCEGRSAGSIPGEHSTDNNRTYPSIQIMNYYGKGKVRITLVTKNDPYKPHPHDLVGKDCRDGYYEAEFGQERRPLFFQNLGIRCVKKKEVKEAIITRIKAGINPFNVPEKQLNDIEDCDLNVVRLCFQVFLPDEHGNLTTALPPVVSNPIYDNRAPNTAELRICRVNKNCGSVRGGDEIFLLCDKVQKDDIEVRFVLNDWEAKGIFSQADVHRQVAIVFKTPPYCKAITEPVTVKMQLRRPSDQEVSESMDFRYLPDEKDTYGNKAKKQKTT

Key:
[1] = molecular target: T1, Terminal (Ter) fragment of PDCD11 (human); test: co-IP; co-transfected cells lysed 48 h after transfection in RIPA buffer (50 mM Tris, 150 mM NaCl, 10% glycerol, 5 mM MgCl2, 0.5% NP40, protease inhibitor); anti-Flag agarose, 4 °C overnight; western blot (anti-GFP, anti-Flag)
[2] = molecular target: Coil–coil fragment of PDCD11 (human); test: as above

Row | binding [1] | binding [2] | Molecule
1 | binds | – | TAD domain of P65 (human) (domain or fragment)
2 | no binding | – | TAD domain of c-Rel (human) (domain or fragment)
3 | – | binds | B1

Results are given in words; binding and its absence hold for the method and conditions named. In cells and extracts the contact can be indirect. Binding can be weak; no strength is given.
